Experimental data published in US20120269739A1, “COMPOSITION, USE, AND PRESERVATION METHOD” (L'OREAL, priority 2009, published 2012).
Some results were stated once for a whole list of compounds, not compound by compound. For at least one compound, name, drawing or mass did not settle the structure.

Test system: bacteria and yeast
Assay: Action kinetics, overall conclusion
Assay type: cell-based
Conditions: sodium benzoate 3.3%, chlorhexidine digluconate 2.2%; generally
Method: The object of this example is to distinguish a compound according to the invention (gingerone) from the preserving agents conventionally used for protecting cosmetic formulations against microbial contamination, as regards the action kinetics.
The inoculated samples are then placed in an incubator-agitator at 35° C.±2° C. Samples are taken after 6 hours, 24 hours, 48 hours, 72 hours and 7 days. Decimal dilutions are then prepared in Eugon LT100 broth. These dilutions are left for 30 minutes±15 minutes at 25° C. in order to neutralize the preserving agents, and are then double-seeded on the surface of Petri dishes containing Eugon LT100 agar.

SMILES: N=C(NCCCCCCNC(=N)NC(=N)Nc1ccc(Cl)cc1)NC(=N)Nc1ccc(Cl)cc1.O=C(O)[C@H](O)[C@@H](O)[C@H](O)[C@H](O)CO.O=C(O)[C@H](O)[C@@H](O)[C@H](O)[C@H](O)CO [Chlorhexidine digluconate]
- action kinetics (time to effect): less than 6 hours
